Experimental data from patent publication US20220305038A1.
Results are given in words; binding and its absence hold for the method and conditions named. Binding calls can cover weak binding; strength is not graded here.

Experiments:
[1] = target: V5-tagged wild-type HLA-DRB1 (human); assay: V5 immunoprecipitation from WM793 cells, then blot probed with AAL (FIG. 19C)
[2] = target: V5-tagged wild-type HLA-DRB1 (human); assay: AAL lectin pulldown from WM793 cells, V5 immunoblot (FIG. 20C)

binding [1]: binds
binding [2]: binds
B1: Aleuria aurantia (AAL) lectin (protein, UniProt P18891 2-313, looked up)
chain: PTEFLYTSKIAAISWAATGGRQQRVYFQDLNGKIREAQRGGDNPWTGGSSQNVIGEAKLFSPLAAVTWKSAQGIQIRVYCVNKDNILSEFVYDGSKWITGQLGSVGVKVGSNSKLAALQWGGSESAPPNIRVYYQKSNGSGSSIHEYVWSGKWTAGASFGSTVPGTGIGATAIGPGRLRIYYQATDNKIREHCWDSNSWYVGGFSASASAGVSIAAISWGSTPNIRVYWQKGREELYEAAYGGSWNTPGQIKDASRPTPSLPDTFIAANSSGNIDISVFFQASGVSLQQWQWISGKGWSIGAVVPTGTPAGW
